Test results: patent US20050048622A1 (Genentech, published 2005)
Results are given in words; binding and its absence hold for the method and conditions named. For some of these results: Binding seen in cells or lysates may run through a third protein. Some results given as binding are weak or reduced against the parent protein; the word gives no strength. Where a sequence is shown, tags or fusion partners need not be part of it.

How the values were obtained:
ErbB4.Fc [1] = biological target: T1, ErbB4.Fc (UniProt Q15303); assay: co-immunoprecipitation in vitro
T1 sequence (looked up): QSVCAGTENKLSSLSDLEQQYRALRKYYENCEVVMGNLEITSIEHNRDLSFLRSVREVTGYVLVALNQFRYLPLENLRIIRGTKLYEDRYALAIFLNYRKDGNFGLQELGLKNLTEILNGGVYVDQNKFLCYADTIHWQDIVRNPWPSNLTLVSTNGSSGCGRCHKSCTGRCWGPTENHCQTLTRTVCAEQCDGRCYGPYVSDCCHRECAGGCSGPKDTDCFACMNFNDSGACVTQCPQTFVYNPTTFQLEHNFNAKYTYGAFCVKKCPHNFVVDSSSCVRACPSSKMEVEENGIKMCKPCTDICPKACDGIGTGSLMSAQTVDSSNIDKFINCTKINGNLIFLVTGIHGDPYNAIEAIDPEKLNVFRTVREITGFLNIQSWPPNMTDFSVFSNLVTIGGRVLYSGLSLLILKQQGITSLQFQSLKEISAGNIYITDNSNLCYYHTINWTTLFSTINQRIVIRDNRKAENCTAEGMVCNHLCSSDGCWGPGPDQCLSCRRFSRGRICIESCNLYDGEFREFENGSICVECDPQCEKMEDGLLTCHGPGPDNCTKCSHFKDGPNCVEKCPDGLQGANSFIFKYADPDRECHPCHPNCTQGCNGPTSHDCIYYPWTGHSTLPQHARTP

human ErbB4 receptor [2] = biological target: T2, human ErbB4 receptor (human, UniProt Q15303 26-1308); assay: summing up of the FACS and plate assays
T2 construct: whole, on cells; also called HER4; K562^erbB4 cells

human ErbB4 receptor [3] = biological target: T2, human ErbB4 receptor; assay: FACS on K562^erbB4 cells, anti-gD detection
ErbB4.Fc [4] = biological target: T1, ErbB4.Fc; assay: competition against ^125I-NRG3^EGF.Fc on immobilized soluble ErbB4 receptor

Measured: binding

B1: NRG3^EGF.Fc (Fc fusion, not shown: small tags and cut ends; a dimerising Fc or GST)
chain: ERSEHFKPCRDKDLAYCLNDGECFVIETLTGSHKHCRCKEGYQGVRCDQFLPKTDSILSDP
modifications: radio-iodinated (^125I, lactoperoxidase method) where used as tracer
binds: all assays above
